Test results published in article PMC4823986.
Results are given in words; binding and its absence hold for the method and conditions named. In cells and extracts the contact can be indirect. Some results given as binding are weak or reduced against the parent protein; the word gives no strength. For some assays here: Sequences can lack the tags named with a protein.

Sequences of proteins named here, by UniProt entry; tags and fusion partners are left off. A change or cut given only in a name is not applied to a line headed by its entry. A line that says so, or that is headed by a name, gives the form on record, which may keep a tag or linker.
UniProt Q9VTP4: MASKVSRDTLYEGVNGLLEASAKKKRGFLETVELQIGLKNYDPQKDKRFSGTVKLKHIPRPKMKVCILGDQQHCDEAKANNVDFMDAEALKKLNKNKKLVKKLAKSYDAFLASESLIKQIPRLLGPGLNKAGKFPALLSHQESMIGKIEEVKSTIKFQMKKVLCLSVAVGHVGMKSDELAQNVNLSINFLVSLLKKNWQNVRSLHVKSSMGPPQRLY
RpL30 GFP-trap protein (Q9VJ19, form named): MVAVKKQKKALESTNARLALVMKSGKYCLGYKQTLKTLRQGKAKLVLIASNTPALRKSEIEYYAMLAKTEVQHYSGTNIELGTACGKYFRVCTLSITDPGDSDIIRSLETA
UniProt P46223: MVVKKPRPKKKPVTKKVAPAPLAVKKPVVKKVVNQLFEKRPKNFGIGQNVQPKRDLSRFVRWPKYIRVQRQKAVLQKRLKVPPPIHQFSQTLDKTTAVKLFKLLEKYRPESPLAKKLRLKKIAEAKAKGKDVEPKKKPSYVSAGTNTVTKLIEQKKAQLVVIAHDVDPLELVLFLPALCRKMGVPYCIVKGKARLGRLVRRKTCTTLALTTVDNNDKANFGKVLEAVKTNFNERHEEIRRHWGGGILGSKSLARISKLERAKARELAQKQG

Experiments:
[1] = biological target: T1, Eukaryotic initiation factor 3-S9 (eIF3-S9) GFP-trap protein (Drosophila) (UniProt Q0E940); test: co-IP; extract from adult flies of GFP-trap lines; anti-GFP antibody to pull down, western blot for Clu
T1 sequence: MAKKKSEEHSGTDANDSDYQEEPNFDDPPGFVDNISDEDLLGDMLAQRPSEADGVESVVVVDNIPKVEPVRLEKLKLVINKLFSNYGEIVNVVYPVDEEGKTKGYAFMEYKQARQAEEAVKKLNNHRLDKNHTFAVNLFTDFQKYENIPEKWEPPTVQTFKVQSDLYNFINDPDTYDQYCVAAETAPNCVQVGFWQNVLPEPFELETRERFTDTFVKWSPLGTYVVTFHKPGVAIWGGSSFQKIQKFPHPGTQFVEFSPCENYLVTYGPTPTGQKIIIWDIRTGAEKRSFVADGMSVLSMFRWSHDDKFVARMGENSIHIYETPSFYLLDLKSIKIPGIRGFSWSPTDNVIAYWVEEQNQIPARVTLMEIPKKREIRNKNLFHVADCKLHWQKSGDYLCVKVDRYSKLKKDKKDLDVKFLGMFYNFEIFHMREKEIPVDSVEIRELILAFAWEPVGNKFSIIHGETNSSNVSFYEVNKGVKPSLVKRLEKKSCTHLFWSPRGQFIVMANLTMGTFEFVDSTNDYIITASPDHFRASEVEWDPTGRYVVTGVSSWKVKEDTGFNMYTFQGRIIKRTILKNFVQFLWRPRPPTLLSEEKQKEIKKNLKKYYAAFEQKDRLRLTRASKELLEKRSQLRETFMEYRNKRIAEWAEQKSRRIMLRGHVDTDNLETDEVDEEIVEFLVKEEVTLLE

[2] = biological target: RpL10Ab GFP-trap protein (Drosophila) (UniProt Q9VTP4); test: as above
[3] = biological target: RpL30 GFP-trap protein (Drosophila) (UniProt Q9VJ19); test: as above
[4] = biological target: RpL7a-myc expressed in adult flies (UAS-RpL7a-myc) (Drosophila) (UniProt P46223); test: co-IP; cytoplasmic fraction of extract from adult flies expressing UAS-RpL7a-myc; reciprocal co-IPs in mitochondrial isolation buffer with 0.5% Triton X-100 and 1 mM DTT
[5] = biological target: RpL7a-myc expressed in adult flies (UAS-RpL7a-myc) (Drosophila) (UniProt P46223); test: co-IP; mitochondrial fraction of extract from adult flies expressing UAS-RpL7a-myc; reciprocal co-IPs in mitochondrial isolation buffer with 0.5% Triton X-100 and 1 mM DTT

binding [1]: binds
binding [2]: binds
binding [3]: binds
binding [5]: binds
B1: Clueless (Clu), endogenous in adult flies (protein, UniProt A1ZAB5 1-1448)
chain: MALETEAKNSNATATGDATATATKASGKAKENNNTAGGKKNLNPNSNQQNSNQNLVNGNGTAADGPAAKKKGKKNRNKSPTEPTTEAVLSNGHAEKPTVVDAVEDNADTNANVEKPQEGGAPDAEADGDDIDLDALQDIGITVNISSPGADLLCVQLSSMELVQEIHQLLMDREETCHRTCFSLQLDNVTLDNFAELKSINNLEQGSTIKVVEEPYTMREARIHVRHVRDLLKNLDPADAYNGIDCTSLTYLNTITQGDLLDKKRTRPDSVDCTPPEYVTPGVSDPPILPLHPNVKNAKGPQALKVLTTSAWNPPPGPRKLHGDLMYLYVVTMEDKRFHISACSKGFFINQSTDDTFNPKPDNPSHLSHSLIDLLSHISPSFRRAFQTIQKRRTMRHAFERVATPYQVYQWAAPILEHTVDAIRAEDAFSSKLGYEEHIPGQTRDWNEELQTTRELPRKTLPERLLRERAIFKVHGDFVTAATRGAMAVIDGNVLAINPGEDTKMQMFIWNNIFFSMGFDVRDHYKELGGDAAAFVAPRYDLHGVRVYNAVDIEGLYTLGTVVVDYRGYRVTAQSIIPGILEREQEQSVVYGSIDFGKTVLSHPKYLELLRQAGKHLKILPHVVLNERDEPVELCSSVECKGIIGNDGRHYILDLLRTFPPDVNFLKLQDVQLSKELVDMGFPIEHRHKLCCLRQELLEAFIEDRHVNFIRIAAARLQQLTTIKQSEKSEANPVPALEGAEAASKVNGAEKPDDKEKKNEEEEKKERSTSGEARAAAIVNAIREAQSNVATSNEVQAAEVVKRACAAVGSLKEKEFDFRFNPDVFSPGIRHADGEEGTSLAKQKVLVQEAAEFLVLKQIPAFIKEHMSHSSSPIDGQSLTESLHSHGINVRYLGKVIKILSQMPRMDYLHRIAVLELIVRATKHIYYTYMQNTEPLHLSAAISHFLNCLLTNGPVNPAVSSEEAHKKRGNGGKHNKHKSSKGGKGQQQQQTTGNQNGSSSGSSNSSSASDWTLMTPRSLWQQIRKEAKVYWDWELDCDSIETAVSKYGILRISLMRAFCLKVGIQVLLREYNFESKHKPTFGDDDIVNVFPIVKHISPRATDAYNFYTTGQAKIQQGLFKEGYELISGALNLLNNVFGALHQENGSCLRMLARLSYLLGDAQDALAIQQRAVIMSERVNGMDHPSTILEYTHLSLYSFANGHVGMSLKLLYRARYLMVLICGEDHPEVALIDSNISLILHALGEYELSLRFIEHALKLNLKYFGDKDMHVALSYHLMARTQSCMGDFRSALNNEKETYSFYKSQLGENHEKTRDSAECLRLLTQQAVLLQRKMNDIYSSGKLTSDLPPIHITPPSMGSVLDMLNTINGILFVKISRKDIVKVRSEIEKHFKTDSTENEVNDAINSIVAAANNNGEAEDAVSKDIKEQPEAGKQLTNGDKAAATEATSS
binding [4]: no binding (condition: in the cytoplasmic fraction)
